Results deposited as PubChem BioAssay AID1159579 (Peter MacCallum Cancer Centre, 2015)

Screen: 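Find genes whose silencing alters migration of lymphatic endothelial cells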 (follow-up of hits)
Cell system: human dermal lymphatic endothelial cells
Reagents: single siRNA against human genes, 25 nM
Measured: 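High content images of wound closure area and cell nuclei counts, each the average of two wells, expressed against mock transfection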
Scale: migration relative to mock: higher = more migration into the scratch; mean nuclei count: higher = more cells remaining
Hit rule: 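a ratio of at most 0.6 or at least 1.3 marks altered migration and an active call; a mean nuclei count under 3300 forces an inactive call regardless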
Meaning of the calls: active = migration changed (impaired or accelerated); inactive = no migration change, or too few cells
Here is an unselected part of about 2,000 reagents tested. Over the whole deposit, 549 (27%) were called active. 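Some migration ratios are negative; siRNAs with too few cells are inactive whatever their migration ratio.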 Unmarked entries are inactive. Reagents against one gene are numbered here. Not given: the time to read-out.

| gene knocked down | reagent no. | migration relative to mock | migration and cell number class | mean nuclei count |
| --- | --- | --- | --- | --- |
| SPDYE3 (GeneID 441272) | 1 | 0.54 (active) | migration reduced | 4861 |
| SPDYE3 (GeneID 441272) | 2 | 0.92 | no change in migration or cell number | 5935 |
| SPDYE3 (GeneID 441272) | 3 | 0.9 | no change in migration or cell number | 5594 |
| SPDYE3 (GeneID 441272) | 4 | 0.82 | no change in migration or cell number | 4064 |
| GATD3 (GeneID 8209) | 1 | 0.84 | no change in migration or cell number | 6151 |
| GATD3 (GeneID 8209) | 2 | 0.72 | no change in migration or cell number | 4428 |
| GATD3 (GeneID 8209) | 3 | 0.78 | no change in migration or cell number | 6218 |
| GATD3 (GeneID 8209) | 4 | 0.39 (active) | migration reduced | 8664 |
| PGLYRP4 (GeneID 57115) | 1 | 0.93 | no change in migration or cell number | 8078 |
| PGLYRP4 (GeneID 57115) | 2 | 0.96 | no change in migration or cell number | 5494 |
| PGLYRP4 (GeneID 57115) | 3 | 0.22 (active) | migration reduced | 5150 |
| PGLYRP4 (GeneID 57115) | 4 | 1.08 | no change in migration or cell number | 6460 |
| FAM117B (GeneID 150864) | 1 | 1.04 | no change in migration or cell number | 6036 |
| FAM117B (GeneID 150864) | 2 | 1.07 | no change in migration or cell number | 5788 |
| FAM117B (GeneID 150864) | 3 | 0.64 | no change in migration or cell number | 3717 |
| FAM117B (GeneID 150864) | 4 | 1.07 | no change in migration or cell number | 6554 |
| SDCCAG8 (GeneID 10806) | 1 | 0.26 (active) | migration reduced | 4045 |
| SDCCAG8 (GeneID 10806) | 2 | 0.36 (active) | migration reduced | 5262 |
| SDCCAG8 (GeneID 10806) | 3 | 1.1 | no change in migration or cell number | 5190 |
| SDCCAG8 (GeneID 10806) | 4 | 0.7 | no change in migration or cell number | 3962 |
| GPATCH4 (GeneID 54865) | 1 | 0.66 | no change in migration or cell number | 5018 |
| GPATCH4 (GeneID 54865) | 2 | 0.99 | no change in migration or cell number | 5610 |
| GPATCH4 (GeneID 54865) | 3 | 0.76 | no change in migration or cell number | 4284 |
| GPATCH4 (GeneID 54865) | 4 | 0.98 | no change in migration or cell number | 4830 |
| EPB41L3 (GeneID 23136) | 1 | 0.77 | no change in migration or cell number | 6761 |
| EPB41L3 (GeneID 23136) | 2 | 0.88 | no change in migration or cell number | 5990 |
| EPB41L3 (GeneID 23136) | 3 | 0.97 | no change in migration or cell number | 6241 |
| EPB41L3 (GeneID 23136) | 4 | 1.02 | no change in migration or cell number | 6282 |
